Results are given in words; binding and its absence hold for the method and conditions named. In cells and extracts the contact can be indirect. Here binding means that the protein was enriched with, or labelled near, the bait; the list need not be complete.

By UniProt entry, the sequences of proteins in these tests, tags left out.
UniProt Q17551: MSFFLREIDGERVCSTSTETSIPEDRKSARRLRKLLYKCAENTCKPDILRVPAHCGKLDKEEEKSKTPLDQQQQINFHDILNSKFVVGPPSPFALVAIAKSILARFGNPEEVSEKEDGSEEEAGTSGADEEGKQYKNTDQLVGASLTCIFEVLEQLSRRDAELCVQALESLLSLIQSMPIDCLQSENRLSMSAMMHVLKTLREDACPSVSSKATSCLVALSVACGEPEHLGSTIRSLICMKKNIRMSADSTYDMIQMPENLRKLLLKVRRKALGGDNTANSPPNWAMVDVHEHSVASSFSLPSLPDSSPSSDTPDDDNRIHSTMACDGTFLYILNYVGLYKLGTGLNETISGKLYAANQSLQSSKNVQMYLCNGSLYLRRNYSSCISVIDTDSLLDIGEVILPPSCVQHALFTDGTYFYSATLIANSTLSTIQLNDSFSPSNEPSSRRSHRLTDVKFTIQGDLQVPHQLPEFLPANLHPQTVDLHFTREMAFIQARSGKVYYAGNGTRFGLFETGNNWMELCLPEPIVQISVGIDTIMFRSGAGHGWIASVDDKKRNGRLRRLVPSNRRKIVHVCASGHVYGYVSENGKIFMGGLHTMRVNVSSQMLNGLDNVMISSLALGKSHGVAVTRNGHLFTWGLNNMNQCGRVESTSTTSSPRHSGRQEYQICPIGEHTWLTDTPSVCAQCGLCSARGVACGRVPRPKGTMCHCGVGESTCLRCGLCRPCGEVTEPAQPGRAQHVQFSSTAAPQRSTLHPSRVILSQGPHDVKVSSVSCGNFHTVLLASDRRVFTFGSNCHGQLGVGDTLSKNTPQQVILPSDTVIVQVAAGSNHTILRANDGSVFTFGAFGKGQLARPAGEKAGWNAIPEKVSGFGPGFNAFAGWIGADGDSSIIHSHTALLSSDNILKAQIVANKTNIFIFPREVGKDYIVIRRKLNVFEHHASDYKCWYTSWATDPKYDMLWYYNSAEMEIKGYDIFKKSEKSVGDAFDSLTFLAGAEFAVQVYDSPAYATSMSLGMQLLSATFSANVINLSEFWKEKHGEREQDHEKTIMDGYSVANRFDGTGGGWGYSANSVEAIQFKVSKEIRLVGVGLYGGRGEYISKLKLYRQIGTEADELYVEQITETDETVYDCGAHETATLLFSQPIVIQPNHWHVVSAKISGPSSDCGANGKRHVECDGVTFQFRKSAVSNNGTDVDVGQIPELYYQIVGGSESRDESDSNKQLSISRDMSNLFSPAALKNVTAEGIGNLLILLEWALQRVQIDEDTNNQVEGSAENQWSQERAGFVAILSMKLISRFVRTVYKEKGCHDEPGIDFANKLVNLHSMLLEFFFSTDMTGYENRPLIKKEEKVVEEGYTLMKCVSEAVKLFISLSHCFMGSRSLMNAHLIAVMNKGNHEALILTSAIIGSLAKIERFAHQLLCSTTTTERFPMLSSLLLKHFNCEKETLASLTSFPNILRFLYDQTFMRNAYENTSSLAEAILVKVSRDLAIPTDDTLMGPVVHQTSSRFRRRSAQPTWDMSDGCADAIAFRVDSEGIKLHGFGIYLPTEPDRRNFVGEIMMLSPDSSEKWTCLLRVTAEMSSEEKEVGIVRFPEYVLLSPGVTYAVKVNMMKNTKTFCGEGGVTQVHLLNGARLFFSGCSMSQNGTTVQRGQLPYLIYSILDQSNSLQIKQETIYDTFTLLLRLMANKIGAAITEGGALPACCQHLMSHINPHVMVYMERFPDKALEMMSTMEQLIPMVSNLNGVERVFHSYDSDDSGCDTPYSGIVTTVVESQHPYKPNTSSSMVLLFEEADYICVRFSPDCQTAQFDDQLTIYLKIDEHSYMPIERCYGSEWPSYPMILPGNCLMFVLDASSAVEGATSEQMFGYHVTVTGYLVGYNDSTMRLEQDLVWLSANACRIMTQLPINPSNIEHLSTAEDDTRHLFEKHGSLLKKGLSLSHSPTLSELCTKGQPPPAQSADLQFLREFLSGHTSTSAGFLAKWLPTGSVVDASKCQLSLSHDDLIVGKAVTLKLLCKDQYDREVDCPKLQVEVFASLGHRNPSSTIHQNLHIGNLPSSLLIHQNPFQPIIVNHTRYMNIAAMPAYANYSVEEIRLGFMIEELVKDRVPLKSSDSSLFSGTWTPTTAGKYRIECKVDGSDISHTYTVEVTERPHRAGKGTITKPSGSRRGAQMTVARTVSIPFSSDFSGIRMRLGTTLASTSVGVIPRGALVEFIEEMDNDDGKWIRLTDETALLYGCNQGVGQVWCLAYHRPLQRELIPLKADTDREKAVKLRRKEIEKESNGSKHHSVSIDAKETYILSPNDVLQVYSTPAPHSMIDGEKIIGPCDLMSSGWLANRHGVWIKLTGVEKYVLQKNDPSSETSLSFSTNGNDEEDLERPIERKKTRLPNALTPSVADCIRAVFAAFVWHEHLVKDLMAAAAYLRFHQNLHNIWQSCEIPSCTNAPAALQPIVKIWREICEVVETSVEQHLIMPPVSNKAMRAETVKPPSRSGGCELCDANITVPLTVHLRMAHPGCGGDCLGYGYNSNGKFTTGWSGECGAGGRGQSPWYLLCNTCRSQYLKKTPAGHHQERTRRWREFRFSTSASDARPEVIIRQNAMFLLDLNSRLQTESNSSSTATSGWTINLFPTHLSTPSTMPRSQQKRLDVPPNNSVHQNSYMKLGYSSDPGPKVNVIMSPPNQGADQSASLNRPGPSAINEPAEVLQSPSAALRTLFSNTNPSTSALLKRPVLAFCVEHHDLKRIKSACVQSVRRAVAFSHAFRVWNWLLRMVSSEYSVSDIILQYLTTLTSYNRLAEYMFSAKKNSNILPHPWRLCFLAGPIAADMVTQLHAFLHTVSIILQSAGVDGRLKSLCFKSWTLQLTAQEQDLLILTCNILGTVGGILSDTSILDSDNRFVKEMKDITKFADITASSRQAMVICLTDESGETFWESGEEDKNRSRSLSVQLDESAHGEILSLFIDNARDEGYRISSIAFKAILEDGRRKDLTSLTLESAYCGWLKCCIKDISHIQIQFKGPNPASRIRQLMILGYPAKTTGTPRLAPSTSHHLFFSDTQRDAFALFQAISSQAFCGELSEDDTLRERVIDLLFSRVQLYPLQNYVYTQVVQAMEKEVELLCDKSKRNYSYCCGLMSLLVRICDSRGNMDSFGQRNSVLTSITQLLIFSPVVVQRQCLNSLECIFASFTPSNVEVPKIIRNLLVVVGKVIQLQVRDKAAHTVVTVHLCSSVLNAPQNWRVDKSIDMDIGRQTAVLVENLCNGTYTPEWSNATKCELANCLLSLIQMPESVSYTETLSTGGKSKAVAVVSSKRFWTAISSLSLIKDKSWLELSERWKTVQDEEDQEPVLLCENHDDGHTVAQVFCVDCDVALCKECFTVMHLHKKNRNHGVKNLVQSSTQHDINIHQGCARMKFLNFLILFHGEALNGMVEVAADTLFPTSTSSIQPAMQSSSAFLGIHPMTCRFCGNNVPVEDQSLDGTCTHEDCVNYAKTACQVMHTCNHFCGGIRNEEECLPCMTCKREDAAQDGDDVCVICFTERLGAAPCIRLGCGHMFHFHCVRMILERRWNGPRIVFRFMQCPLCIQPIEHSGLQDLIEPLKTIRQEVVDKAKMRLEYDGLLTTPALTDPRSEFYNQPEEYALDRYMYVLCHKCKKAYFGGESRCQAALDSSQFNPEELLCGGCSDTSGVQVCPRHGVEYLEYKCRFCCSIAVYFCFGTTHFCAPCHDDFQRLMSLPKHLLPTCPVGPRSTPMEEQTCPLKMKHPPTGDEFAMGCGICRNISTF
UniProt G5ECH7: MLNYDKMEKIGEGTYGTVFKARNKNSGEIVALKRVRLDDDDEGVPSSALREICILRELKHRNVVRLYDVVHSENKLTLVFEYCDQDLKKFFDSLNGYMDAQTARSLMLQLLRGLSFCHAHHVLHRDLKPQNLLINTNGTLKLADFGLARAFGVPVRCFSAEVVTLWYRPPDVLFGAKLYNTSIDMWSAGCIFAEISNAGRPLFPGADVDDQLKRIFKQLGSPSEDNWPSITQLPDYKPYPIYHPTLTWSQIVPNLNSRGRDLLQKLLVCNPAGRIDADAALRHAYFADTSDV

The text below walks through data of paper PMC11642917.

Test [1] has as its target GS::RPM-1 ligase-dead (LD) (C. elegans) (UniProt Q17551). The test is described as follows: affinity purification with mass spectrometry; GS-tagged RPM-1 bait captured on IgG-coupled Dynabeads from whole-animal lysates of mixed-stage C. elegans (80 mg total protein, 500 uL beads, 4°C, 4 hours; various detergent conditions); SDS-PAGE, in-gel trypsin digest, LC-MS/MS; GS::GFP negative control; 7 independent experiments; hit = 1.5x or greater total spectra over GS::GFP.

In another test the target is GS::RPM-1 (C. elegans) (UniProt Q17551). The test is described as above.

For the molecule CDK-5 (from UniProt G5ECH7 1-292), the binding result in test [1] is listed as “binds”.

B1: PAT-3 (protein, UniProt Q27874 20-809)
chain: ASDWKTGEVTGKVVEKSEFPCYSLSRDNYTCSACIQYHESCAWCGAPMFDEKKPYARCDSRAKLMEHGCPNSYIEDPATKLDITEDSKLSDQGQVESEEEAVQIKPQEMYVEIRPKSRVRFNVTYRQAVDYPVDLYYLMDLSYSMKDDKQKLSELGDLLAERMRTVTKNFRLGFGSFIDKKLMPFIDPRIEKQLSPCPTPCAEPYGFKHQMSLTTNTAKFKAEVDKAEISGNLDAPEGGFDAVVQALACNKTIGWRERARKMIVFSTDAGFHFAGDGRLAGVVEPNDGTCHLDREGYYTETLNQDYPSIALLHQMIKDRKANVIFAVTKNNQDLYTQLSNALPDVSSSVGVLANDSRNIVDLIEKEYLKISEKIIMVDNANASEGLKLTYRSMCLDGTTLKDTNVCEGIRVGDEVQFEVTLENTHCIDKRDFVLRIGPSGLDETLIVNVKVLCDCDCERQDRIVTNSADCNGGDMVCGVCRCKGGNVGKYCECNRPGMSTAALNEKCKRTNESAICEGRGVCNCGRCECNPRANPEEQISGEFCECDNFNCPRHDRKICAEHGECNCGKCICAPGWTGRACECPISTDSCLSANGKICNGKGECICGRCRCFDSPDGNRYSGAKCEICPTCPTKCVEYKNCVMCQQWQTGPLNETACDQCEFKVIPVEELPNLNETTPCQFVDPADDCTFYYLYYYDEATDNATVWVRKHKDCPPPVPVLAIVLGVIAGIVILGILLLLLWKLLTVLHDRSEYATFNNERLMAKWDTNENPIYKQATTTFKNPVYAGKAN
Turning to B1, the binding result in test [1] is “binds”.

B2: CLP-1 (protein, UniProt P34308 1-780)
chain: MADDEEEIIQKVEVKPDEFNGLIGSIAGNLIRDKVGGAGGDILGGLASNFFGGGGGGGGGGGGGGFGGGNGGFGGGSNYDQGGNGNSGDQQKRKRDMAKDLIGGIFDNVVNRKGKKEQDNYGGGGNYGGGGGNQGGGGGGGFNFNDIGGLINSMGGGGGGGQRQGGGGGGFGDILGGIGSLIGGGGGGQYNGGGGNVNPNNLNGGMVNVIGNLIGEAAHRFLGVDPGTGRIIGAVAGNVIMGLGGKDNSLGNIGKVILDNIISGKFRRDVDPFVRPGPDPDRGGGGSGPSPISPRPTTEPQDFYELRDQCLESKRLFEDPQFLANDSSLFFSKRPPKRVEWLRPGEITREPQLITEGHSRFDVIQGELGDCWLLAAAANLTLKDELFYRVVPPDQSFTENYAGIFHFQFWQYGKWVDVVIDDRLPTSNGELLYMHSASNNEFWSALLEKAYAKLFGSYEALKGGTTSEALEDMTGGLTEFIDLKNPPRNLMQMMMRGFEMGSLFGCSIEADPNVWEAKMSNGLVKGHAYSITGCRIVDGPNGQTCILRIRNPWGNEQEWNGPWSDNSREWRSVPDSVKQDMGLKFDHDGEFWMSFDDFMRNFEKMEICNLGPDVMDEVYQMTGVKAAGMVWAANTHDGAWVRNQTAGGCRNYINTFANNPQFRVQLTDSDPDDDDELCTVIFAVLQKYRRNLKQDGLDNVPIGFAVYDAGNNRGRLSKQFFAANKSAMRSAAFINLREMTGRFRVPPGNYVVVPSTFEPNEEAEFMLRVYTNGFIESEEL
As to B2, in the test with GS::RPM-1 (C. elegans), the binding result is “binds”.

B3: TNS-1 (protein, UniProt H2L045 1-1354)
chain: MAAAALCCASRKSNKYNNEAGYEVYTISEDQLRLKQKMKDRKEGVQVEYITSRLIVLSCTSETSERKFVESLLKASQQIQNAHNKHIRVWNVSQRRHDISSSLDAIPFGWPSETAPSLEKLCTICKNLDQWMLEHPLNIAVIFCKGGLERCAIVVNAFMRFNAISATDDSVDDRFSMQRFSERFLGPDGPPSYKRYLGYFSSLLSGRISVNSDPLYLHNIILTFFEPINVFLKIYERLVPVYQSKTVALNKSSKFEMDGSLKLRGDIFFKCIVAASSPGSSTRCLFTCQLNTCALELHPINSEGYSVVRLHKEELDLIFNDKKIDNRVTVELVVSHTSGPTTIATAAVQSVHSLLPRNNSYETFELAQDDETNRSRLEVEYSEIRKKSTKSSKSANPINNNQEEEMPVGPPVPPKPSTPIMNGERLGEYGVGGHIGNGDVVPERRGILPASLREKINQKKELEGRATPSIEPDLVGRDRYDKASRCFSYVPAKSMQEAFERPRRTSFSRAIEKRENSVENVSQEEVARTEIPQSYQQNDISTPAKWDEQVEDAKQSALLEELARAPSAMQHNYWGNGEVDNVQVVDQAQRAVITPTSTLQRRPKPPARSGSYRTLNDDAYCSDMDELCDPEYYLNYNSNTAPLPPPRRQEQHAGTRSVQLPRKKMNFDAVTDPLDDVLESTKRLGSAYSVGDVRGGQQQQQEQHNASNDFNFSNTLNNTPTDYRQHYRNRNCQSVTTPRNHHFSTPSREQEADAADTWLSGKLKKVRSKRDIDPDIVRRRTQEKMLLEELKDSAANNDENQHNLPNGHARGAGLQNIDPLAEFRREEERLRNTRSPYGEERWRGRMRGKPPTPPPRESSASPVNSLPRGTPAHHMDRQRHNQSVPLPMHHRQFDEDFDVNSLFNFSHDPRQQSTTLERGGRSLSRGARIQDAYYASQQDLSANNRFNSGQERVAAAIYRAETAHRDMYASGTINRAETPGRYFPENSAVLERSSTPSFPVSRATPLPFHPLLYNNGERGGSGHAAGGGGGGHNGYSTMNNRSASPRLFGGSSTLSRRSSVNSVDTSEIIHHHPLFVKDTSKYWYKPTISREQAINMLRDKPPGTFVVRDSNSFPGAFGLALKVSTPPPGVNPGDGSELVRHFLIEPSPKGVKLKGCNNEPVFGSLSALVYQHSITALALPTKLVLPDFDPAATPEHLSATQALLEQGAACNVVYVGSVDVESLTGNECVKRSIATCSQRAINGDSRAVSVHFKVSSQGVTLTDNTRKVFFRRHFNVQSVIFAGMDPIERRFENTRALGFHDGCIAQARLFAFVARIPSSSENACHVFAELEPEQPGSAVVNFINKVMLAQKNRS
Turning to B3, the binding entry in the test with GS::RPM-1 (C. elegans) is “binds”.

B4: ABL-1 (protein, UniProt P03949 1-1224)
chain: MGHSHSTGKEINDNELFTCEDPVFDQPVASPKSEISSKLAEEIERSKSPLILEVSPRTPDSVQMFRPTFDTFRPPNSDSSTFRGSQSREDLVACSSMNSVNNVHDMNTVSSSSSSSAPLFVALYDFHGVGEEQLSLRKGDQVRILGYNKNNEWCEARLYSTRKNDASNQRRLGEIGWVPSNFIAPYNSLDKYTWYHGKISRSDSEAILGSGITGSFLVRESETSIGQYTISVRHDGRVFHYRINVDNTEKMFITQEVKFRTLGELVHHHSVHADGLICLLMYPASKKDKGRGLFSLSPNAPDEWELDRSEIIMHNKLGGGQYGDVYEGYWKRHDCTIAVKALKEDAMPLHEFLAEAAIMKDLHHKNLVRLLGVCTHEAPFYIITEFMCNGNLLEYLRRTDKSLLPPIILVQMASQIASGMSYLEARHFIHRDLAARNCLVSEHNIVKIADFGLARFMKEDTYTAHAGAKFPIKWTAPEGLAFNTFSSKSDVWAFGVLLWEIATYGMAPYPGVELSNVYGLLENGFRMDGPQGCPPSVYRLMLQCWNWSPSDRPRFRDIHFNLENLISSNSLNDEVQKQLKKNNDKKLESDKRRSNVRERSDSKSRHSSHHDRDRDRESLHSRNSNPEIPNRSFIRTDDSVSFFNPSTTSKVTSFRAQGPPFPPPPQQNTKPKLLKSVLNSNARHASEEFERNEQDDVVPLAEKNVRKAVTRLGGTMPKGQRIDAYLDSMRRVDSWKESTDADNEGAGSSSLSRTVSNDSLDTLPLPDSMNSSTYVKMHPASGENVFLRQIRSKLKKRSETPELDHIDSDTADETTKSEKSPFGSLNKSSIKYPIKNAPEFSENHSRVSPVPVPPSRNASVSVRPDSKAEDSSDETTKDVGMWGPKHAVTRKIEIVKNDSYPNVEGELKAKIRNLRHVPKEESNTSSQEDLPLDATDNTNDSIIVIPRDEKAKVRQLVTQKVSPLQHHRPFSLQCPNNSTSSAISHSEHADSSETSSLSGVYEERMKPELPRKRSNGDTKVVPVTWIINGEKEPNGMARTKSLRDITSKFEQLGTASTIESKIEEAVPYREHALEKKGTSKRFSMLEGSNELKHVVPPRKNRNQDESGSIDEEPVSKDMIVSLLKVIQKEFVNLFNLASSEITDEKLQQFVIMADNVQKLHSTCSVYAEQISPHSKFRFKELLSQLEIYNRQIKFSHNPRAKPVDDKLKMAFQDCFDQIMRLVDR
For the molecule B4, the binding entry in test [1] is given as “binds”.

B5: DYN-1 (protein, UniProt P39055 1-830)
chain: MSWQNQGMQALIPVINRVQDAFSQLGTSVSFELPQIAVVGGQSAGKSSVLENFVGKDFLPRGSGIVTRRPLILQLIQDRNEYAEFLHKKGHRFVDFDAVRKEIEDETDRVTGQNKGISPHPINLRVFSPNVLNLTLIDLPGLTKVPVGDQPADIEQQIRDMILTFINRETCLILAVTPANSDLATSDALKLAKEVDPQGLRTIGVLTKLDLMDEGTDAREILENKLFTLRRGYVGVVNRGQKDIVGRKDIRAALDAERKFFISHPSYRHMADRLGTSYLQHTLNQQLTNHIRDTLPTLRDSLQKKMFAMEKDVAEYKNYQPNDPGRKTKALLQMVTQFNADIERSIEGSSAKLVSTNELSGGARINRLFHERFPFEIVKMEIDEKEMRKEIQYAIRNIHGIRVGLFTPDMAFEAIAKKQITRLKEPSLKCVDLVVNELANVIRQCADTMARYPRLRDELERIVVSHMREREQIAKQQIGLIVDYELAYMNTNHEDFIGFSNAEAKASQGQSAKKNLGNQVIRKGWLSLSNVSFVRGSKDNWFVLMSDSLSWYKDDEEKEKKYMLPLDGVKLKDIEGGFMSRNHKFALFYPDGKNIYKDYKQLELGCTNLDEIDAWKASFLRAGVYPEKQKAQEDESQQEMEDTSIDPQLERQVETIRNLVDSYMRIITKTIKDLVPKAVMHLIVNQTGEFMKDELLAHLYQCGDTDALMEESQIEAQKREEMLRMYHACKEALRIISEVNMSTLGDQPPPLPMSDYRPHPSGPSPVPRPAPAPPGGRQAPMPPRGGPGAPPPPGMRPPPGAPGGGGGMYPPLIPTRPGPGGPPPNMAPPR
Take B5: the binding entry with GS::RPM-1 (C. elegans) is “binds”.

B6: COR-1 (protein, UniProt Q21624 1-607)
chain: MAQIVRQSKFRHVFCKPVKHESCMSDIRVTEITWDSLFCDVNPKFIAFINRGAGGPFMVIPVNKIGRVDKDYPFVDAHKAPCLEVAWSPFNDNVIASCSEDTTCKVWVIPDRGLNRNLSEPAVELTGHQKRVNTIAWHPVANNVLLTAGGENVMFMWNVGTGEALLEISGHPDQIWSINFNFDGSQFVTTCKDKKIRILDSHTGEVVHEGMGHEGVKPQRAIFVKDGLILSTGFTKRSERLYALRAPEDLSTPIVEEELDTSNGVVFPFYDEDSGLVYLVGKGDCAIRYYEVNNDAPYVHYINTYTTNEPQRAVGFQSKRGMSSEENEINRIYKLTTKGVVDILQFFVPRKSDLFQHDLYPDTRSTIPALTAEEFMEGKNAAPNRQPVNAAAAAAAAKPKVQVAKKANILSTLAPTAAESVPTQSYSERPPSSQQPSPRPSASPRPRPVVDDDMGIVTMREAPPSRPASSRASRTEIPPKEESKVDPMKPKQAVQLKSRAARDEPGGGAQTAGQRRAAAELERIKRDQSRTADEDNTLAPPPSSSRASASPRGSVSAASDVGHVPQNMDELLEDLMKMKAVLRQHERRIRMLEEEIADRNMSNAYSF
For the molecule B6, the binding entry in test [1] is given as “binds”.
